Test results from patent publication US8828401B2 (Pfizer Inc., priority 2011, dated 2014).

Experiment: general procedure: solution-phase peptide synthesis; HATU
Settings: for conjugation yield: conjugation step
[1] = coupling step, HPLC (Protocol A)
[2] = late stage modification step, HPLC (Protocol A)
[3] = late stage modification step, HPLC Protocol T
[4] = late stage modification step, trifluoroacetic acid salt

## 1,2-dimethyl-L-prolyl-N-[(3R,4S,5S)-1-{(2S)-2-[(1R,2R)-3-{[(2S)-1-{[6-(2,5-dioxo-2,5-dihydro-1H-pyrrol-1-yl)hexyl]amino}-1-oxo-3-phenylpropan-2-yl]amino}-1-methoxy-2-methyl-3-oxopropyl]pyrrolidin-1-yl}-3-methoxy-5-methyl-1-oxoheptan-4-yl]-N-methyl-L-valinamide
  conjugation yield: 86%

## methyl N-{(2R,3R)-3-[(2S)-1-{(3R,4S,5S)-4-[(N-{[(2S)-1-(tert-butoxycarbonyl)-2-methylpiperidin-2-yl]carbonyl}-L-valyl)(methyl)amino]-3-methoxy-5-methylheptanoyl}pyrrolidin-2-yl]-3-methoxy-2-methylpropanoyl}-L-phenylalaninate
Coupling step
  step yield: 39%

## N^2-(3-{[(9H-fluoren-9-ylmethoxy)carbonyl]amino}-2,2-dimethylpropanoyl)-N-{(3R,4S,5S)-3-methoxy-1-[(2S)-2-{(1R,2R)-1-methoxy-2-methyl-3-oxo-3-[(2-phenylethyl)amino]propyl}pyrrolidin-1-yl]-5-methyl-1-oxoheptan-4-yl}-N-methyl-L-valinamide
Coupling step
  step yield: 65%

## 1,2-dimethyl-L-prolyl-N-[(3R,4S,5S)-1-{(2S)-2-[(1R,2R)-2-carboxy-1-methoxypropyl]pyrrolidin-1-yl}-3-methoxy-5-methyl-1-oxoheptan-4-yl]-N-methyl-L-valinamide
Coupling step
  step yield: 33%
[1]
  final HPLC purity: >97%

## 2-methylalanyl-N-[(3R,4S,5S)-1-{(2S)-2-[(1R,2R)-3-{[(1S,2R)-1-hydroxy-1-phenylpropan-2-yl]amino}-1-methoxy-2-methyl-3-oxopropyl]pyrrolidin-1-yl}-3-methoxy-5-methyl-1-oxoheptan-4-yl]-N-methyl-L-valinamide
Late stage modification step
  step yield: 51%
[2]
  final HPLC purity: >90%

## (2R)—N-[(2S)-1-{[(3R,4S,5S)-3-methoxy-1-{(2S)-2-[(1R,2R)-1-methoxy-2-methyl-3-oxo-3-{[(1S)-2-phenyl-1-(1,3-thiazol-2-yl)ethyl]amino}propyl]pyrrolidin-1-yl}-5-methyl-1-oxoheptan-4-yl](methyl)amino}-3-methyl-1-oxobutan-2-yl]
Late stage modification step
  step yield: 73%
[3]
  final HPLC purity: 100%

## N-[(9H-fluoren-9-ylmethoxy)carbonyl]-N,2-dimethylalanyl-N-[(3R,4S,5S)-3-methoxy-1-{(2S)-2-[(1R,2R)-1-methoxy-2-methyl-3-oxo-3-{[(2S)-1-oxo-1-(pentafluorophenoxy)-3-phenylpropan-2-yl]amino}propyl]pyrrolidin-1-yl}-5-methyl-1-oxoheptan-4-yl]-N-methyl-L-valinamide
Late stage modification step
  step yield: 74%

## N-{(2R,3R)-3-methoxy-3-[(2S)-1-{(3R,4S,5S)-3-methoxy-5-methyl-4-[methyl(N-{[(2R)-2-methylpiperidin-2-yl]carbonyl}-L-valyl)amino]heptanoyl}pyrrolidin-2-yl]-2-methylpropanoyl}-L-phenylalanine, trifluoroacetic acid salt
Late stage modification step
  step yield: 68%
Late stage modification step, HPLC Protocol U
  final HPLC purity: 98%

## 1,2-dimethyl-D-prolyl-N-[(3R,4S,5S)-1-{(2S)-2-[(1R,2R)-3-{[(2S)-3-(4-aminophenyl)-1-methoxy-1-oxopropan-2-yl]amino}-1-methoxy-2-methyl-3-oxopropyl]pyrrolidin-1-yl}-3-methoxy-5-methyl-1-oxoheptan-4-yl]-N-methyl-L-valinamide
Coupling step
  step yield: 56%
[1]
  final HPLC purity: 100%

## N^2-[(1-aminocyclopentyl)carbonyl]-N-[(3R,4S,5S)-3-methoxy-1-{(2S)-2-[(1R,2R)-1-methoxy-2-methyl-3-oxo-3-{[(1S)-2-phenyl-1-(1,3-thiazol-2-yl)ethyl]amino}propyl]pyrrolidin-1-yl}-5-methyl-1-oxoheptan-4-yl]-N-methyl-L-valinamide
Late stage modification step
  step yield: 96%

## N,2-dimethylalanyl-N-[(3R,4S,5S)-3-methoxy-1-{(2S)-2-[(1R,2R)-1-methoxy-2-methyl-3-{[(1S)-2-phenyl-1-(1,3-thiazol-2-yl)ethyl]amino}-3-thioxopropyl]pyrrolidin-1-yl}-5-methyl-1-oxoheptan-4-yl]-N-methyl-L-valinamide
Late stage modification step
  step yield: 95%

## N-methyl-L-valyl-N-[(3R,4S,5S)-3-methoxy-1-{(2S)-2-[(1R,2R)-1-methoxy-2-methyl-3-{[(1S)-2-phenyl-1-(1,3-thiazol-2-yl)ethyl]amino}-3-thioxopropyl]pyrrolidin-1-yl}-5-methyl-1-oxoheptan-4-yl]-N-methyl-L-valinamide
Late stage modification step
  step yield: 92%
[2]
  final HPLC purity: >97%

## N-methyl-L-valyl-N-{(3R,4S,5S)-3-methoxy-1-[(2S)-2-{(1R,2R)-1-methoxy-2-methyl-3-[(2-phenylethyl)amino]-3-thioxopropyl}pyrrolidin-1-yl]-5-methyl-1-oxoheptan-4-yl}-N-methyl-L-valinamide
Late stage modification step
  step yield: 88%

## N,2-dimethylalanyl-N-{(1S,2R)-4-{(2S)-2-[(1R,2R)-3-{[(1S)-1-benzyl-2-(methylamino)-2-oxoethyl]amino}-1-methoxy-2-methyl-3-oxopropyl]pyrrolidin-1-yl}-2-methoxy-1-[(1S)-1-methylpropyl]-4-oxobutyl}-N-methyl-L-valinamide, trifluoroacetic acid salt
Late stage modification step, TFA salt
  step yield: 30%

## 2-methylalanyl-N-[(3R,4S,5S)-1-{(2S)-2-[(1R,2R)-3-{[(1S)-1-carboxy-2-phenylethyl]amino}-1-methoxy-2-methyl-3-oxopropyl]pyrrolidin-1-yl}-3-methoxy-5-methyl-1-oxoheptan-4-yl]-N-methyl-L-valinamide, trifluoroacetic acid salt
[4]
  step yield: 52%

## 1,2-dimethyl-L-prolyl-N-[(3R,4S,5S)-1-{(2S)-2-[(1R,2R)-3-{[(2S)-3-(4-aminophenyl)-1-methoxy-1-oxopropan-2-yl]amino}-1-methoxy-2-methyl-3-oxopropyl]pyrrolidin-1-yl}-3-methoxy-5-methyl-1-oxoheptan-4-yl]-N-methyl-L-valinamide
Coupling step
  step yield: 51%
[1]
  final HPLC purity: 100%

## N,2-dimethylalanyl-N-[(3R,4S,5S)-1-{(2S)-2-[(1R,2R)-3-{[(1S)-1-carboxy-2-phenylethyl]amino}-1-methoxy-2-methyl-3-thioxopropyl]pyrrolidin-1-yl}-3-methoxy-5-methyl-1-oxoheptan-4-yl]-N-methyl-L-valinamide, trifluoroacetic acid salt
Late stage modification step, HPLC Protocol A at 45° C, trifluoroacetic acid salt
  final HPLC purity: purity >96%
[4]
  step yield: 58%

## N-[(3R,4S,5S)-1-{(2S)-2-[(1R,2R)-3-{[2-(cyclohepta-2,4,6-trien-1-yl)ethyl]amino}-1-methoxy-2-methyl-3-oxopropyl]pyrrolidin-1-yl}-3-methoxy-5-methyl-1-oxoheptan-4-yl]-N˜2˜-{[(3S)-3-fluoropyrrolidin-3-yl]carbonyl}-N-methyl-L-valinamide
[3]
  final HPLC purity: 100%
Late stage modification step, over two steps
  step yield: 32% over two steps

## 2-methyl-L-prolyl-N-[(3R,4S,5S)-3-methoxy-1-{(2S)-2-[(1R,2R)-1-methoxy-2-methyl-3-oxo-3-{[(1S)-2-phenyl-1-(1,3-thiazol-2-yl)ethyl]amino]propyl}pyrrolidin-1-yl}-5-methyl-1-oxoheptan-4-yl]-N-methyl-L-vaLinamide, trifluoroacetic acid salt
Coupling step
  step yield: 56%
[1]
  final HPLC purity: >98%

## N˜2˜-{[(3R)-3-fluoropyrrolidin-3-yl]carbonyl}-N-[(3R,4S,5S)-3-methoxy-1-{(2S)-2-[(1R,2R)-1-methoxy-2-methyl-3-oxo-3-{[(1S)-2-phenyl-1-(1,3-thiazol-2-yl)ethyl]amino}propyl]pyrrolidin-1-yl}-5-methyl-1-oxoheptan-4-yl]-N-methyl-L-valinamide
Late stage modification step
  step yield: 60%
[3]
  final HPLC purity: 100%

## 2-methylalanyl-N-[(3R,4S,55)-1-{(2S)-2-[(1R,2R)-3-{[2-(cyclohepta-2,4,6-trien-1-yl)ethyl]amino}-1-methoxy-2-methyl-3-oxopropyl]pyrrolidin-1-yl}-3-methoxy-5-methyl-1-oxoheptan-4-yl]-N-methyl-L-valinamide
Late stage modification step
  step yield: 85%

## 2-methyl-D-prolyl-N-[(3R,4S,5S)-3-methoxy-1-{(2S)-2-[(1R,2R)-1-methoxy-3-{[(2S)-1-methoxy-1-oxo-3-phenylpropan-2-yl]amino}-2-methyl-3-oxopropyl]pyrrolidin-1-yl}-5-methyl-1-oxoheptan-4-yl]-N-methyl-L-valinamide
Coupling step
  step yield: 54%
[1]
  final HPLC purity: >98%

## N-(tert-butoxycarbonyl)-N,2-dimethylalanyl-N-[(3R,4S,5S)-3-methoxy-1-{(2S)-2-[(1R,2R)-1-methoxy-2-methyl-3-oxo-3-{[(1S)-2-phenyl-1-(1,3-thiazol-2-yl)ethyl]amino}propyl]pyrrolidin-1-yl}-5-methyl-1-oxoheptan-4-yl]-N-methyl-L-valinamide
Coupling step
  step yield: 50%

## tert-butyl (2R)-2-{[(2S)-1-{[(3R,4S,5S)-3-methoxy-1-{(2S)-2-[(1R,2R)-1-methoxy-2-methyl-3-oxo-3-{[(1S)-2-phenyl-1-(1,3-thiazol-2-yl)ethyl]amino}propyl]pyrrolidin-1-yl}-5-methyl-1-oxoheptan-4-yl](methyl)amino}-3-methyl-1-oxobutan-2-yl]carbamoyl}
Coupling step
  step yield: 37%
Coupling step, HPLC Protocol W
  final HPLC purity: 95%

## methyl N-{(2R,3R)-3-[(2S)-1-{(3R,4S,5S)-4-[(N-{[(3R)-3-fluoropyrrolidin-3-yl]carbonyl}-L-valyl)(methyl)amino]-3-methoxy-5-methylheptanoyl}pyrrolidin-2-yl]-3-methoxy-2-methylpropanoyl}-L-phenylalaninate, trifluoroacetic acid salt [#172]
Late stage modification step, run 1
  step yield: 51%

## N-[6-(2,5-dioxo-2,5-dihydro-1H-pyrrol-1-yl)hexanoyl]-L-valyl-N-(4-{(6S,9R,10R)-6-benzyl-10-[(2S)-1-{(3R,4S,5S)-4-[(1,2-dimethyl-L-prolyl-L-valyl)(methyl)amino]-3-methoxy-5-methylheptanoyl}pyrrolidin-2-yl]-9-methyl-3,8-dioxo-2,11-dioxa-4,7-diazadodec-1-yl}phenyl)-N˜5˜-carbamoyl-L-ornithinamide
  conjugation yield: 45%
